Data: article PMC10570296
These are yes or no findings as the source states them, for the method shown. In cells and extracts the contact can be indirect. Some entries that bind do so weakly or less than the wild type. For part of these data: Sequences can lack the tags named with a protein.

Sequences of proteins named here, by UniProt entry; tags and fusion partners are left off.
UniProt O75151: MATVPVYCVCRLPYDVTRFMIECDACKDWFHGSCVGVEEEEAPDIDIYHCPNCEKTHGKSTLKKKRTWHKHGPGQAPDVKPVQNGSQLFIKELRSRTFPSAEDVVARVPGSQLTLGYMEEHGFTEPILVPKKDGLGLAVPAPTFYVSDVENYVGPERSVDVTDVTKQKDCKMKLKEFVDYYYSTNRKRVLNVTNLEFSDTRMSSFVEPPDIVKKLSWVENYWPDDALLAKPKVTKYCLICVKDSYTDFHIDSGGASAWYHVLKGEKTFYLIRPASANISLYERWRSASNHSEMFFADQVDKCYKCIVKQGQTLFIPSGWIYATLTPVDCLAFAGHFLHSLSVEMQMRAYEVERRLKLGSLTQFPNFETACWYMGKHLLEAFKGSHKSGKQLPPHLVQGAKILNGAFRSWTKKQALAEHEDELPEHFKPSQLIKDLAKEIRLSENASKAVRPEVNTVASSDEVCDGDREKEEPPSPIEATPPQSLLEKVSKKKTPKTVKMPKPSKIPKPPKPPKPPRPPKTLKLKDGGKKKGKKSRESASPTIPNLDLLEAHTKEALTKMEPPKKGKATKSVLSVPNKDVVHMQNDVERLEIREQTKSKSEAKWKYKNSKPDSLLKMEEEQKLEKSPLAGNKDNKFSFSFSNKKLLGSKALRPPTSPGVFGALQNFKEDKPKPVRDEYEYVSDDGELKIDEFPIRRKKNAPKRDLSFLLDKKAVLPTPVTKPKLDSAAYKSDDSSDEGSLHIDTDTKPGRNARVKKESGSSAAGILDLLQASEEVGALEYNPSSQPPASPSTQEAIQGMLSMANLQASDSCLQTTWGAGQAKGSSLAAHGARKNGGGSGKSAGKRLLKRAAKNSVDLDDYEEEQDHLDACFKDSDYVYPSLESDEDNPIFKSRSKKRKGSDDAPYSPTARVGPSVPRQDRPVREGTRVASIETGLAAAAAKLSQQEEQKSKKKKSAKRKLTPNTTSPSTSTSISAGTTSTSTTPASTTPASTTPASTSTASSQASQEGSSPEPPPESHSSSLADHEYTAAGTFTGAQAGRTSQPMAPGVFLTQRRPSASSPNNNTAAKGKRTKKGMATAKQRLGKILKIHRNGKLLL

Legend:
[1] = biological target: T1, Flag-tagged rat SREBP1c, amino-terminal fragment (1–403 amino acids) (rat) (UniProt P56720); assay: co-IP; Supplementary Fig. 10c, d; legend not shown; immunoprecipitation from cell lysates as in the methods (50 mM Tris-Cl, 100 mM NaCl, 1% NP-40, 5 mM EDTA)
T1 sequence: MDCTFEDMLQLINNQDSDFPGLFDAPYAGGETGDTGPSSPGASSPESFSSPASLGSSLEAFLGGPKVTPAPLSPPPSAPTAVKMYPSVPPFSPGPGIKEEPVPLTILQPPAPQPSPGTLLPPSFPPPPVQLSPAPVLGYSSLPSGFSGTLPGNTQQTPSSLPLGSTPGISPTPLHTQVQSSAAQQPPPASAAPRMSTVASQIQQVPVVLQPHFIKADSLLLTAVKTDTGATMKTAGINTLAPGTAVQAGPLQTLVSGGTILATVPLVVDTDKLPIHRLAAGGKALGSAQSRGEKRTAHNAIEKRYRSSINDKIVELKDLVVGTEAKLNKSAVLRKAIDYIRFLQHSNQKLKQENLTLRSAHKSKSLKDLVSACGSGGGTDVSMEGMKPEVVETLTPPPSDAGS

[2] = biological target: T2, endogenous SREBP1c (sterol regulatory element-binding protein 1c) (human (endogenous in HepG2)) (UniProt P36956); assay: as above
T2 sequence: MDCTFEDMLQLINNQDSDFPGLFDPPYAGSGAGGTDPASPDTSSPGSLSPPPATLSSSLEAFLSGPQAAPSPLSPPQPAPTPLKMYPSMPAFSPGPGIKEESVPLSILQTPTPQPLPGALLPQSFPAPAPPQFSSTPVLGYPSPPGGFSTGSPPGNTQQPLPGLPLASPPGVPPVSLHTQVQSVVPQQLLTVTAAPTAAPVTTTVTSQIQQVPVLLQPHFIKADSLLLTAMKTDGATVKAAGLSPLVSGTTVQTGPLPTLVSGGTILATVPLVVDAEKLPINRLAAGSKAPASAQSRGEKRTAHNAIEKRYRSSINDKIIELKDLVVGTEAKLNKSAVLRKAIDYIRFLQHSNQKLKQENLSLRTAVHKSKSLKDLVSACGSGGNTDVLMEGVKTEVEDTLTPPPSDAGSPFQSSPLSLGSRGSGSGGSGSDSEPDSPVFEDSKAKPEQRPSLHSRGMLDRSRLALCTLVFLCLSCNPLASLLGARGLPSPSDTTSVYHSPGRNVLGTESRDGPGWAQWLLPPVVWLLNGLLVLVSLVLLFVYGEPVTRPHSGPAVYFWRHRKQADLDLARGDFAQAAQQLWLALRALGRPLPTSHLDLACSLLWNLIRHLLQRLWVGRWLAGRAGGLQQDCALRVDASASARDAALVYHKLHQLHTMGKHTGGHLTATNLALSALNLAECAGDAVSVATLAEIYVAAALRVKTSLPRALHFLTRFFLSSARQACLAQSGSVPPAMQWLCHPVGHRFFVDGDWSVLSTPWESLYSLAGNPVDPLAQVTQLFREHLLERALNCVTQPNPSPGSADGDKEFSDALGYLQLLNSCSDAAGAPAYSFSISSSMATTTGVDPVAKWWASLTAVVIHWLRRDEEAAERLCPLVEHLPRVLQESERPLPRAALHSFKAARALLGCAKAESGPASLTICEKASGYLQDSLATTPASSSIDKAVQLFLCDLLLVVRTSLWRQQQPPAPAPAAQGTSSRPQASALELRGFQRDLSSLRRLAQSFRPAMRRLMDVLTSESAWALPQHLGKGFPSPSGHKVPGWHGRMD

[3] = biological target: T3, SREBP1c-bHLH (256–362 amino acids), Flag/SBP-tagged (rat) (UniProt P56720); assay: pull-down; Flag/SBP-tagged segments purified on streptavidin (SA) affinity beads from lysates of transfected HepG2 or 293T cells after MG132 for 8 h; immunoblotting
T3 sequence: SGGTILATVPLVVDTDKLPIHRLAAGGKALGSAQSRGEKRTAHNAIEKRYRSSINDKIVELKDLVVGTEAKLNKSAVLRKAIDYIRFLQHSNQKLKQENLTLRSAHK

Measured: binding

PHF2 (as used in the SREBP1c interaction experiments) (from UniProt O75151 1-1096)
binds: all assays above
